Test results reported in PMC4207637.
These are yes or no findings as the source states them, for the method shown. Binding seen in cells or lysates may run through a third protein. Binding calls can cover weak binding; strength is not graded here.

Amino acid sequences for entries named in this document (tags omitted). A change or cut given only in a name is not applied to a line headed by its entry.
UniProt Q3UV17: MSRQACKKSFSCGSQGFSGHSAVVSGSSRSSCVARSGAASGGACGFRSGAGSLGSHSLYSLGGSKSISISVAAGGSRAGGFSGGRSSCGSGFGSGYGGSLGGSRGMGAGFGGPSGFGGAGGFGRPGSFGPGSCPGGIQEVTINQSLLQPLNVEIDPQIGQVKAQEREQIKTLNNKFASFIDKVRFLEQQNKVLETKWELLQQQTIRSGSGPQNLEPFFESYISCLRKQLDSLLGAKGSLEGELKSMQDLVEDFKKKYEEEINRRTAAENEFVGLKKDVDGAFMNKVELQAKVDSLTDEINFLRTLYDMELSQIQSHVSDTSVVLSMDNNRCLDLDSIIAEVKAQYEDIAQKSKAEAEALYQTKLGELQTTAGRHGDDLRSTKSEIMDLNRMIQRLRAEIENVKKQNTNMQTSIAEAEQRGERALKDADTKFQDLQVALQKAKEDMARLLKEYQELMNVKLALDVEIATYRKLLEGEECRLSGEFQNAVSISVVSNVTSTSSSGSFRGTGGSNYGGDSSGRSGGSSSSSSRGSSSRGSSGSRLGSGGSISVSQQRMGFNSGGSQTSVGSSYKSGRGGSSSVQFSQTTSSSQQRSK

Molecular target: HIS-tagged KRT76 tail domain (UniProt Q3UV17)
Assay: pull-down; HIS or HIS-KRT76 tail domain bound to His-Mag nickel beads, incubated with adult mouse paw pad skin lysate (RIPA) overnight at 4°C; washed four times in Tris-saline pH 7.4 with 1% Triton X-100; immunoblot for CLDN1 and the HIS tag; only the target purified

binding: binds
B1: Claudin1 (CLDN1), endogenous in mouse paw pad skin (protein, UniProt O88551 1-211)
chain: MANAGLQLLGFILASLGWIGSIVSTALPQWKIYSYAGDNIVTAQAIYEGLWMSCVSQSTGQIQCKVFDSLLNLNSTLQATRALMVIGILLGLIAIFVSTIGMKCMRCLEDDEVQKMWMAVIGGIIFLISGLATLVATAWYGNRIVQEFYDPLTPINARYEFGQALFTGWAAASLCLLGGVLLSCSCPRKTTSYPTPRPYPKPTPSSGKDYV
